Measurements as given in the supplement of paper PMC11061612.

Tested on: DAN-G (Pancreatic Carcinoma)
Assay: Bliss excess, mean over the matrix (fraction); higher = more synergy
Method in brief: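 After 24 hours at 37°C and 5% CO2 in 1536-well plates, cells in DMEM/F12 or RPMI plus 10% FBS received two-drug dose matrices for 72 hours. Viability came from CellTiter-Glo 2.0 luminescence and was scaled as inhibition, anchored at 0 by vehicle wells and at 1 by blank wells. Combination Emax is taken as the second-highest inhibition in the matrix, and Bliss excess as the observed combination effect less EA + EB − EA·EB, with EA and EB the single-agent effects.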
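Further: after 72 h of two-drug dosing.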

Compound: COc1cc2ncnc(Nc3ccc(F)c(Cl)c3)c2cc1OCCCN1CCOCC1 [Gefitinib] + CC(C)n1c(=O)n(C)c2cnc3cc(F)c(-c4ccc(OCCCN5CCCCC5)nc4)cc3c21 [AZD1390] (first compound max 10 µM, 7x7, partner max 0.3 µM)
- Bliss excess: -0.0655
